Assay [1] relates to MILI (PIWIL2) piRISC loaded with L1MC piRNA (26 nt). Briefly: pre-steady-state target cleavage rate (min^-1); higher = faster piRNA-guided slicing of the target. The settings on record: guide: L1MC piRNA 5'p-UAACUAAAUACUAUGCAAGCUGUAGG
The method, boiled down: (§1)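 With or without 500 nM GTSF1 partner protein, 1 nM active affinity-purified piRISC carrying one synthetic guide was mixed with 0.1 nM transcribed, DNA-blocked target RNA library in HEPES–potassium acetate buffer at 33 °C for 0–8 or 0–960 min. Uncleaved targets were sequenced and normalised to depth and to weakly complementary targets, three trials were pooled, and k3 was capped at 0.0001 min^-1. The pre-steady-state cleavage rate came from a burst-and-steady-state fit.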

Assay [2] deals with EfPiwi piRISC loaded with L1MC piRNA (26 nt). The assay is described as follows: pre-steady-state target cleavage rate (min^-1); guide: L1MC piRNA 5'p-UAACUAAAUACUAUGCAAGCUGUAGG; MIWI and MILI are mouse PIWI proteins and EfPiwi is from a freshwater sponge; tags in brackets are library labels; higher = faster piRNA-guided slicing of the target. The method, boiled down: as §1
Where [3] appears, read: auxiliary factor: none (no GTSF1).
[4] abbreviates: auxiliary factor: 500 nM Ephydatia muelleri Gtsf1.
Setting [5] is: auxiliary factor: none (no Gtsf1).

17 sequences from the supplement of paper PMC10338343 can be followed below.

± gives the standard deviation. The list shows a part of the results, in another mix than the full data. The uncertainty is large for many entries. This is one part of the list.

Regarding UCCUGGAACAGCUUGCAUUGUAUUUAGAUA, the “pre-steady-state target cleavage rate” value in assay [1] (setting [3]) turned out to be 0.00241 ± 0.0029; in assay [2] (setting [4]), 0.00313 ± 0.0017; in assay [2] (setting [5]), 0.000283 ± 0.029.
In the case of UCCUGGAUGAGCUUGCAUAGUAAUUAGUAA, the “pre-steady-state target cleavage rate” value in assay [1] (setting [3]) came to 0.00185 ± 0.0052; in assay [2] (setting [4]), 0.00197 ± 0.0019; in assay [2] (setting [5]), 0.00119 ± 0.0091.
The matching figures for UCCUGCUACAGCUUGGUAAGUAUUUAGUAA: 0.00122 ± 0.0049, 0.00104 ± 0.0066 and 0.000382 ± 0.015.
For the sequence UCCUGCUACAUGCUUGCAUAGUAUUUAGUUA, the figures for the “pre-steady-state target cleavage rate” value in assay [1] (setting [3]), in assay [2] (setting [4]) and in assay [2] (setting [5]) were 0.00259 ± 0.0036, 0.00438 ± 0.002 and 0.000411 ± 0.015, respectively.
For the sequence UCCUGGAACAGCUUGCAUUGUAUUUUGUUA, the results for the “pre-steady-state target cleavage rate” value in assay [1] (setting [3]), in assay [2] (setting [4]) and in assay [2] (setting [5]) were 0.00156 ± 0.0034, 0.00509 ± 0.0026 and 0.00126 ± 0.0065, respectively.
In the case of UCCUGGAUGUGCUUGCAUAGUUAAUAGAAA, the “pre-steady-state target cleavage rate” value was determined as 0.000726 ± 0.009 in assay [1] (setting [3]), 0.000372 ± 0.011 in assay [2] (setting [4]) and 0.000427 ± 0.015 in assay [2] (setting [5]).
For the sequence UCCUGGAAGAGCUUGCAUAGAAUUUAGUUA, the figures for the “pre-steady-state target cleavage rate” value in assay [1] (setting [3]), in assay [2] (setting [4]) and in assay [2] (setting [5]) were 0.00185 ± 0.0039, 0.00403 ± 0.0018 and 0.001 ± 0.011, respectively.
On to UCCUGGAUGAGCUUGCAUACUAUUAAGUUA, for which the “pre-steady-state target cleavage rate” value in assay [1] (setting [3]) was 0.000997 ± 0.0068; in assay [2] (setting [4]), 0.00231 ± 0.0024; in assay [2] (setting [5]) it was 0.000315 ± 0.036.
As for UCCUGGAUGUCGAUGCAUAGUAUUCUAGUUA, the “pre-steady-state target cleavage rate” value in assay [1] (setting [3]) came out at 0.00197 ± 0.0045; in assay [2] (setting [4]), 0.000343 ± 0.0097; in assay [2] (setting [5]) it was 0.000154 ± 0.054.
Turning to UCCUGGAUGAGCUUGCAAAGUAUUUACUUA, the “pre-steady-state target cleavage rate” value was found to be 0.00299 ± 0.0033 in assay [1] (setting [3]), 0.00103 ± 0.0042 in assay [2] (setting [4]) and 0.000261 ± 0.033 in assay [2] (setting [5]).
For UCCUGGAACAGCUUGCAUGGUAUUUAGUUA, the “pre-steady-state target cleavage rate” value in assay [1] (auxiliary factor: 500 nM mouse GTSF1) was 0.283 ± 0.022; in assay [2] (setting [4]), 0.0141 ± 0.0045; in assay [2] (setting [5]) it was 0.00234 ± 0.0048.
Take UCCUGGUUGAGCUUGCAUAGUAUUUACAAA: the “pre-steady-state target cleavage rate” value in assay [1] (setting [3]) was 0.0022 ± 0.0037; in assay [2] (setting [4]), 0.00201 ± 0.003; in assay [2] (setting [5]), 0.000703 ± 0.011.
As for UCCUGCUACAGCUUGCAUAGUAUUUAAUUA, the “pre-steady-state target cleavage rate” value is 0.00244 ± 0.0044 in assay [1] (setting [3]), 0.00612 ± 0.0025 in assay [2] (setting [4]) and 0.000516 ± 0.018 in assay [2] (setting [5]).
The matching figures for UCCUGGAACAGCUUGCAUAGUAUAAAGUAA: 0.00168 ± 0.0043, 0.00132 ± 0.0037 and 0.000356 ± 0.028.
Consider UCCUGGAUGAGCUUGCAUAGAAUUAAGUUA, for which the “pre-steady-state target cleavage rate” value in assay [1] (setting [3]) is 0.00118 ± 0.005; in assay [2] (setting [4]), 0.000467 ± 0.015; in assay [2] (setting [5]), 0.000668 ± 0.012.
UCCUGGUACUGCUUGCAUAGUAUUUACUUA: the “pre-steady-state target cleavage rate” value is 0.00118 ± 0.0065 in assay [1] (setting [3]), 0.00185 ± 0.0033 in assay [2] (setting [4]) and 0.000565 ± 0.014 in assay [2] (setting [5]).
In the case of UCCUGGUACAGCUUGCAAAGUAUUUAGAUA, the “pre-steady-state target cleavage rate” value in assay [1] (setting [3]) was found to be 0.00228 ± 0.0031; in assay [2] (setting [4]), 0.00431 ± 0.0026; in assay [2] (setting [5]), 0.000651 ± 0.011.
